Measurements as given in the supplement of paper PMC11061612.

Tested on: NCI-H28 (Mesothelioma)
Assay: Bliss excess, mean over the matrix (fraction); higher = more synergy
Method in brief: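 Cell lines grown in DMEM/F12 or RPMI with 10% FBS were plated in 1536-well plates and held 24 hours at 37°C, 5% CO2 before 72 hours of exposure to two-drug dose matrices, with DMSO typically at 0.2%. CellTiter-Glo 2.0 luminescence gave viability, which was converted to inhibition. Vehicle wells were set to 0 and blank wells to 1. Combination Emax is the second-highest inhibition in the matrix, and Bliss excess is the observed combination effect minus the expected EA + EB − EA·EB, where EA and EB are the single-agent effects.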

Compound: COc1cc2ncnc(Nc3ccc(F)c(Cl)c3)c2cc1OCCCN1CCOCC1 [Gefitinib] + CC(C)n1c(=O)n(C)c2cnc3cc(F)c(-c4ccc(OCCCN5CCCCC5)nc4)cc3c21 [AZD1390] (first compound max 10 µM, 7x7, partner max 0.3 µM)
- Bliss excess: -0.0618
